B1: Isocitrate dehydrogenase [NADP], mitochondrial (protein, UniProt P56574 40-452)
chain: AEKRIKVEKPVVEMDGDEMTRIIWQFIKEKLILPHVDVQLKYFDLGLPNRDQTNDQVTIDSALATQKYSVAVKCATITPDEARVEEFKLKKMWKSPNGTIRNILGGTVFREPIICKNIPRLVPGWTKPITIGRHAHGDQYKATDFVVDRAGMFKLVFTPKDGSGAKEWEVYNFPAGGVGMGMYNTDESISGFAHSCFQYSIQKKWPLYLSTKNTIMKAYDGRFKDIFQEIFDKHYKTDFDKNKIWYEHRLIDDMVAQVLKSSGGFVWACKNYDGDVQSDILAQGFGSLGLMTSVLVCPDGKTIEAEAAHGTVTRHYREHQKGRPTSTNPIASIFAWTRGLEHRGKLDGNQDLIRFAQTLEKVCVQTVESGAMTKDLAGCIHGLSNVKLNEHFLNTTDFLDTIKSNLDRALGKQ
B2: Very long-chain specific acyl-CoA dehydrogenase (protein, UniProt P45953 41-655)
chain: ASEATQAVLEKPETLSSDASTREKPARAESKSFAVGMFKGQLTTDQVFPYPSVLNEGQTQFLKELVGPVARFFEEVNDPAKNDSLEKVEEDTLQGLKELGAFGLQVPSELGGLGLSNTQYARLAEIVGMHDLGVSVTLGAHQSIGFKGILLYGTKAQKEKYLPRVASGQALAAFCLTEPSSGSDVASIRSSAVPSPCGKYYTLNGSKIWISNGGLADIFTVFAKTPIKDAATGAVKEKITAFVVERSFGGVTHGLPEKKMGIKASNTSEVYFDGVKVPAENVLGEVGDGFKVAVNILNNGRFGMAATLAGTMKAIIAKAVDHATNRTQFGDKIHNFGVIQEKLARMAILQYVTESMAYMLSANMDQGFKDFQIEAAISKIFGSEAAWKVTDECIQIMGGMGFMKEPGVERVLRDIRIFRIFEGTNDILRLFVALQGCMDKGKELTGLGNALKNPLGNVGLLIGEASKQLRRRTGIGSGLSLSGIVHPELSRSGELAVQALEQFATVVEAKLMKHKKGIVNEQFLLQRLADGAIDLYAMVVVLSRASRSLSEGYPTAQHEKMLCDSWCIEAATRIRENMASLQSNPQQQELFRNFRSISKAMVENGGLVTSNPLRV
B3: Carnitine O-palmitoyltransferase 2, mitochondrial (protein, UniProt P18886 26-658)
chain: SAVSGPDDYLQHSIVPTMHYQDSLPRLPIPKLEDTMKRYLNAQKPLLDDSQFRRTEALCKNFETGVGKELHAHLLAQDKQNKHTSYISGPWFDMYLTARDSIVLNFNPFMAFNPDPKSEYNDQLTRATNLTVSAVRFLKTLQAGLLEPEVFHLNPSKSDTDAFKRLIRFVPPSLSWYGAYLVNAYPLDMSQYFRLFNSTRIPRPNRDELFTDTKARHLLVLRKGHFYVFDVLDQDGNIVNPLEIQAHLKYILSDSSPVPEFPVAYLTSENRDVWAELRQKLIFDGNEETLKKVDSAVFCLCLDDFPMKDLIHLSHTMLHGDGTNRWFDKSFNLIVAEDGTAAVHFEHSWGDGVAVLRFFNEVFRDSTQTPAITPQSQPAATNSSASVETLSFNLSGALKAGITAAKEKFDTTVKTLSIDSIQFQRGGKEFLKKKQLSPDAVAQLAFQMAFLRQYGQTVATYESCSTAAFKHGRTETIRPASIFTKRCSEAFVRDPSKHSVGELQHMMAECSKYHGQLTKEAAMGQGFDRHLYALRYLATARGLNLPELYLDPAYQQMNHNILSTSTLNSPAVSLGGFAPVVPDGFGIAYAVHDDWIGCNVSSYSGRNAREFLHCVQKCLEDIFDALEGKAIKT
B4: Citrate synthase, mitochondrial (protein, UniProt Q8VHF5 28-466)
chain: ASSTNLKDILSNLIPKEQARVKTFRQQHGKTVVGQITVDMMYGGMRGMKGLVYETSVLDPDEGIRFRGYSIPECQKLLPKAKGGEEPLPEGLFWLLVTGQMPTEEQVSWLSQEWAKRAALPSHVVTMLDNFPTNLHPMSQLSAAITALNSESNFARAYAEGINRTKYWELIYEDCMDLIAKLPCVAAKIYRNLYREGSSIGAIDSKLDWSHNFTNMLCYTEPQFTELMRLYLTIHSDHDGGNVSAHTSHLVGSALSDTYLSFAAAMNGLAGPLHGLANQEVLVWLTQLQKEVGKDVSDEKLRDYIWNTLNSGRVVPGYGHAVLRKTDPRYSCQREFALKHLPKDPMFKLVAQLYKIVPNILLEQGKAKNPWPNVDAHSGVLLQYYGMTEMNYYTVLFGVSRALGVLAQLIWSRALGFPLERPKSMSTDGLMKFVDSKSG
B5: Malate dehydrogenase, mitochondrial (protein, UniProt P04636 25-338)
chain: AKVAVLGASGGIGQPLSLLLKNSPLVSRLTLYDIAHTPGVAADLSHIETRANVKGYLGPEQLPDCLKGCDVVVIPAGVPRKPGMTRDDLFNTNATIVATLTAACAQHCPEAMICIISNPVNSTIPITAEVFKKHGVYNPNKIFGVTTLDIVRANTFVAELKGLDPARVNVPVIGGHAGKTIIPLISQCTPKVDFPQDQLATLTGRIQEAGTEVVKAKAGAGSATLSMAYAGARFVFSLVDAMNGKEGVIECSFVQSKETECTYFSTPLLLGKKGLEKNLGIGKITPFEEKMIAEAIPELKASIKKGEDFVKNMK
B6: Ubiquitin specific protease 25 (Predicted) (protein, UniProt D4ACD3 1-1055)
chain: MTVEQNVLQQSAAQKHQQTFLNQLREITGINDAQILQQALKDSNGNLELAVAFLTAKNAKTPPQEETAYYQTAALPGSDRYISVGSQADANVIDLTGDDKDDLQRAIALSLAESNRTFRETGITDEEQAISRVLEASIAENKACLKRTPIEVWRDSRNPYDRKRQDKAPVGLKNVGNTCWFSAVIQSLFNLLEFRRLVLNYKPPSNAQDLPRNQKEHRNLPFMRELRYLFALLVGTKRKYVDPSRAVEILKDAFKSNDSQQQDVSEFTHKLLDWLEDAFQMKAEEETDEEKPKNPMVELFYGRFLAMGVLEGKKFENTEMFGQYPLQVNGFKDLHECLEAAMIEGEIESLHSDNSGKSGQEHWFTELPPVLTFELSRFEFNQALGRPEKIHNKLEFPQVLYLDRYMHRNREITRIKREEIKRLKDYLTVLQQRLERYLSYGSGPKRFPLVDVLQYALEFASSKPVCTSPVDDIDATSSTSGSTSSQSLPSTTEQQGTPASDLPSSSPASGAALSLRSVIHKPFTQSRIPPDLPMHPAPRHITEEELSVLESCLHRWRTEIENDTRDLQESISRIHRTIELMYSDKSMIQVPYRLHAVLVHEGQANAGHYWAYIFDHRESRWMKYNDIAVTKSSWEELVRDSFGGYRNASAYCLMYINDKAQFLIQEEFNKETGQALVGMETLPPDLRDFVEEDNQRFEKELEDWDTQLAQRALQEKLLAAQKLREAESSAPTAQAGGPDYLEQPSRSDLSKHWKEETLRVIAKASHDHEDKGPETVLQSAIKLEYSRLVKLAQEDTPPETDYRLHHVLVYFIQNQAPKKIIEKTLLEQFGDRNLSFDERCHNIMKVAQAKLEMIKPEEVNLEEYEEWHADYKKFRETTMYLIIGLENFQRESYIDSLLFLICAYQNNKELLSKGPYRGHDGDLISHYRRECLLKLNEQAAELFESGEDREVSNGLIIMNEFIVPFLPLLLVDETEERDILAVEDMRNRWCSYLGQDMEPNLQEKLTDFLPKLLDCSTEIKGFHEPPKLPSYSAHELCERFARIMLSLSRTPADGR
B7: SFI1 centrin-binding protein (protein, UniProt D3ZTG6 1-1209)
chain: MEKKIGFRSFRDGVVKKPCSPKALPLKKSSAFSGIQRELTRSCHSSYYQSSQSWTPQRLRELRVRCVARKFLYLWMRVTFGRVTPSRARFFHEQKILRKVFGEWREEWWVSQREWKLCVRADCHYRYYLYNLIFQNWKSFVYQQREMRKRFQRAEHHDMKQKMRHAWKSWLIYMVARRTKFRMKSTALEFRRRSVLCFWWNKWRWRLGRVHAEQALHAAAVKHRALSLQLQAWLRWQEQLLISQRERRKVATAVRHHQRWQKQRTLKAWLKYLRICRVKRWQNEMAVQFHRITVLQIHFCDWQWAWEWRQSLSAHQALVAKLARKMVLRRAFAHWKHYMLLQEEEAAQREAAAEHHQHCLLHSCFRAFKDNVTRARLKRMRKSLAHQLRDTTLLHRFWNLWQSRVEQREERVQPPSLLAAQSHYRMTVLRKCVRVWLQYVHKRRCLQSLQARALGHFQQRALPAAFYTWYRVWRWHQQRRTLHTRAVRFHREALEKQVFALWRQKVSQHREIRLAERMAMLQAEQQLLRRFWFVWHQRAAACHQERQRQAMAIAHHHSGLLRRAFCIWRESTQGFRMERMGRAQASHFHSVRLLCWAWSKWREGLALRMEEQQKLKRAALHSQRTLLHRALQKWLVYQDRMRSVLQEVAARERQHNRQLLWWVLHRWRENTMARLDGAKKTSQARVHYNRTLCSKVLVQWREVTSVKIYYRQKEAAALREARKALDRGRLRTWLQRWQVCRQREAQQTFRLQQAAQHHRRQLLAGAMARWKAYHLCCVRKKFLQRQAAQLLAQRLGRACFCQWRKQLAVRKQEQWGTARALWFWAFSLQAKVWAAWLGFVLEKRRKKARLEQAMQAYHQQLLQEGATRLLRFTAGMKALRQQLQAQQQVQAAHSLHCAVRHCAELWKKKVLGPDKTSQPPAPIAFSRRVTFKDFSLSGLAAEAGDAPLSQGVLGSLAVAAGEPFIPELNEARPSRKQPRRPSFLLERVQSQRSPERCTLGEQQLQKTPEKGQSMAPPGGSSLTRPFLPVVRPNVSGPKLPPTASPGLELLPPSSFMPHGVRDAARVSTKPSISGPQPWGCPSLTRDPDPHLLLPGDSTSTRTGPGYGSETTGHTELEAELEGIQQQLQHYQTTKQNLWSCQRQANSLRRWLELSQEEPSCEDLHLEEQVKTELEEVELQIQQLAKELEAQRQPVGTCIARVRALRRALC
B8: Aconitate hydratase, mitochondrial (protein, UniProt Q9ER34 28-780)
chain: QRAKVAMSHFEPSEYIRYDLLEKNINIVRKRLNRPLTLSEKIVYGHLDDPANQEIERGKTYLRLRPDRVAMQDATAQMAMLQFISSGLPKVAVPSTIHCDHLIEAQLGGEKDLRRAKDINQEVYNFLATAGAKYGVGFWRPGSGIIHQIILENYAYPGVLLIGTDSHTPNGGGLGGICIGVGGADAVDVMAGIPWELKCPKVIGVKLTGTLSGWTSPKDVILKVAGILTVKGGTGAIVEYHGPGVDSISCTGMATICNMGAEIGATTSVFPYNHRMKKYLSKTGRADIANLAEEFKDHLVPDPGCQYDQVIEINLNELKPHINGPFTPDLAHPVADVGTVAEKEGWPLDIRVGLIGSCTNSSYEDMGRSAAVAKQALAHGLKCKSQFTITPGSEQIRATIERDGYAQILRDVGGIVLANACGPCIGQWDRKDIKKGEKNTIVTSYNRNFTGRNDANPETHAFVTSPEIVTALAIAGTLKFNPETDFLTGKDGKKFKLEAPDADELPRSDFDPGQDTYQHPPKDSSGQRVDVSPTSQRLQLLEPFDKWDGKDLEDLQILIKVKGKCTTDHISAAGPWLKFRGHLDNISNNLLIGAINIENGKANSVRNAVTQEFGPVPDTARYYKKHGIRWVVIGDENYGEGSSREHAALEPRHLGGRAIITKSFARIHETNLKKQGLLPLTFADPSDYNKIHPVDKLTIQGLKDFAPGKPLNCIIKHPNGTQETILLNHTFNETQIEWFRAGSALNRMKELQQ

These are yes or no findings as the source states them, for the method shown. In cells and extracts the contact can be indirect. A yes stands for co-enrichment or nearness to the bait. Other partners may have been found.

In the assay the target is Akt (protein kinase B) (rat (endogenous in rat cardiomyocytes)). The assay is described as follows: affinity purification with mass spectrometry; Akt precipitated with polyclonal Akt 1/2/3 antibody (sc-8312) and protein A-Sepharose from 1% NP-40 lysates of cardiomyocytes of control and MetS rats stimulated with 100 nM insulin for 10 min; label-free mass spectrometry of the immune complexes.
As to B1, the binding result is on record as “binds”.

Regarding B2, the binding entry is “binds”.

With B3, the binding entry is on record as “binds”.

For the molecule B4, the binding result is on record as “binds”.

As to B5, the binding result is recorded as “binds”.

On to B6, for which the binding entry is “binds”.

Take B7: the binding entry was “binds”.

For the molecule B8, the binding result is given as “binds”.

For the origin of these results see article PMC6988918.
